Results from ChEMBL document CHEMBL6103588, “Promising thiazolidinedione-thiazole based multi-target and neuroprotective hybrids for Alzheimer's disease: Design, synthesis, in-vitro, in-vivo and in-silico studies” (Eur J Med Chem, 2025).

Assay: in vitro
Conditions: PAMPA, pH 7.4

## COc1cc2c(cc1OC)C(=O)C(CC1CCN(Cc3ccccc3)CC1)C2 (stereo unspecified) [DONEPEZIL]
  Papp at 20 h: 16.7 ×10⁻⁶ cm/s
